In article PMC4873647 one finds binding data, which are given here for four substances.

Sequences of proteins named here, by UniProt entry; tags and fusion partners are left off. A change or cut given only in a name is not applied to a line headed by its entry. Residues count along the entry.
UniProt P49023: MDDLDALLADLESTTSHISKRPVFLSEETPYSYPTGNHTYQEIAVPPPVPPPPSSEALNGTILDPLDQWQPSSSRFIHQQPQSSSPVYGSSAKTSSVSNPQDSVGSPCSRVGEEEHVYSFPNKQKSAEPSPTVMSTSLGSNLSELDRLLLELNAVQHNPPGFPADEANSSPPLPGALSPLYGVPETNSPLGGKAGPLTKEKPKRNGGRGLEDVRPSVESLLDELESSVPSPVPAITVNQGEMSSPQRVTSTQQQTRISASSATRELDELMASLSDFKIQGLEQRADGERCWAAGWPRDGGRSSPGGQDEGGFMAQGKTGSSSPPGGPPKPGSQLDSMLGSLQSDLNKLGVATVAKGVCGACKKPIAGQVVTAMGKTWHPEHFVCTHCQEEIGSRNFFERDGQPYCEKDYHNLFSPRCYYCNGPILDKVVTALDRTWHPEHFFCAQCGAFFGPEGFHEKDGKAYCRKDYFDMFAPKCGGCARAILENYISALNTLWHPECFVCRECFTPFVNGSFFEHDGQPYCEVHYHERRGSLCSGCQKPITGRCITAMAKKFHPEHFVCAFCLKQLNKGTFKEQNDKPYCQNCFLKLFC
UniProt Q8VI36: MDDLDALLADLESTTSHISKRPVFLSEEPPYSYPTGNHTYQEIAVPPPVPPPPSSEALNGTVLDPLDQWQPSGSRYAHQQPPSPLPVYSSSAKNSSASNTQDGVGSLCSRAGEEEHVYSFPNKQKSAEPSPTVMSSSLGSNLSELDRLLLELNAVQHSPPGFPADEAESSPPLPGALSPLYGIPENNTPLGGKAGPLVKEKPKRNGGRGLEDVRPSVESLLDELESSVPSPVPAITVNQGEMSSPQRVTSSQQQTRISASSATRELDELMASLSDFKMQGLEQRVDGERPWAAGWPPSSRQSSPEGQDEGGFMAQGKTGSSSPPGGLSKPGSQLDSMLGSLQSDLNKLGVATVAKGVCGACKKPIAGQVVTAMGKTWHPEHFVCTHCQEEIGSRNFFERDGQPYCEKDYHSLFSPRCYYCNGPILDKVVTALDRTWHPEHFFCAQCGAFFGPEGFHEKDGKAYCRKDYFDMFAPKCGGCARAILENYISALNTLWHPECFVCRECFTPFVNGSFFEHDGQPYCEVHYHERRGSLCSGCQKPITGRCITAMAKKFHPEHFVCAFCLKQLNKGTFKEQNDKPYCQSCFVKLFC
GST-Pxn-Ct (four LIM domains, aa337-591): residues 337-591 of Q8VI36
UniProt P25322: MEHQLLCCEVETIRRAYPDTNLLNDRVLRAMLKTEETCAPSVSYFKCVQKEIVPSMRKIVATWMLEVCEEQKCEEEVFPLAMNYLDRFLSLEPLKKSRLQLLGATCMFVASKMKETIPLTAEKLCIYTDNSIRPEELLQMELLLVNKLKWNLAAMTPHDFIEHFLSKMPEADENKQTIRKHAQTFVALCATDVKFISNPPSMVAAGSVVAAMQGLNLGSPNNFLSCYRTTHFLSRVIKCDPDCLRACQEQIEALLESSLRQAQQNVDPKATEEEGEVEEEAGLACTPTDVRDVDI
UniProt P24385: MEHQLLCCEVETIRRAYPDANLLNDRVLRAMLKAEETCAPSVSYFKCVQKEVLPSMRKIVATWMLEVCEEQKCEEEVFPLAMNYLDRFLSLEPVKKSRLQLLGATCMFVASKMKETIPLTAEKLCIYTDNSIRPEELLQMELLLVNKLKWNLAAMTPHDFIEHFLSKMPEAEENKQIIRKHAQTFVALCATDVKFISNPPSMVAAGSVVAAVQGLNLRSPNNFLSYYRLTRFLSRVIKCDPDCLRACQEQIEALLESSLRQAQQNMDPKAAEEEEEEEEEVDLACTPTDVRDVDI

Experiment [1] addresses GFP-tagged human Pxn (in R3327-5′A cells) (human) (UniProt P49023). As to the kind of experiment: co-IP; R3327-5′A cells co-transfected with GFP-Pxn or GFP alone and Flag-Ccnd1; IP with anti-GFP monoclonal antibodies; same lysis buffer; blot with anti-GFP and anti-Flag.
The target of experiment [2] is GST-Pxn (full length) (mouse) (UniProt Q8VI36). As to the kind of experiment: pull-down; 400 ng of GST or GST-Pxn on Glutathione-Sepharose 4B beads, incubated with in vitro translated Flag-Ccnd1; 20 mM HEPES-KOH pH 7.5, 150 mM KCl, 5 mM MgCl2, 0.5 mM EDTA, 0.1% NP-40, 1 mM DTT, 10% glycerol; 30 min at room temperature; four washes; western blot for Ccnd1 and GST; only the target purified. Background: In western blotting, separated proteins are transferred to a membrane and probed.

In experiment [3] the target is GST-Pxn-Ct (four LIM domains, aa337-591) (mouse) (UniProt Q8VI36). The experiment is described as above.
The target of experiment [4] is Cyclin D1 (Ccnd1), endogenous (mouse (endogenous in mouse fibroblasts)) (UniProt P25322). Kind of experiment: co-IP; IP of endogenous Ccnd1 with a rabbit polyclonal anti-Ccnd1 (#06-137) from wild-type MEFs; same lysis buffer; Protein A magnetic beads; anti-Flag IgG as mock; western blot.
Experiment [5] concerns the target paxillin (Pxn), endogenous (mouse (endogenous in mouse fibroblasts)) (UniProt Q8VI36). As to the kind of experiment: co-IP; IP of endogenous Pxn with a rabbit polyclonal anti-Pxn (H-114) from Ccnd1+/+ immortalized MEFs; lysis buffer 10 mM Tris-HCl pH 7.5, 50 mM NaCl, 1% Triton X-100, 3 mM MgCl2, 300 mM sucrose; Protein A magnetic beads; anti-Flag IgG as mock; western blot for Ccnd1, Cdk4, Pxn.

No constants are given. Whether binding was seen depends on the method and setting. In cells and extracts the contact can be indirect. Some entries that bind do so weakly or less than the wild type.

“Flag-tagged human Ccnd1 (in R3327-5′A cells) (from UniProt P24385 1-295)”: the binding result in experiment [1] is recorded as “binds”. “Flag tagged Ccnd1, in vitro translated (from UniProt P24385 1-295)”: the binding entry in experiment [2] and in experiment [3] was “binds” in each case.

With “paxillin (Pxn), endogenous (from UniProt Q8VI36 1-591)”, in experiment [4], the binding entry was “binds”.

As to “Cyclin D1 (Ccnd1), endogenous (from UniProt P25322 1-295)”, the binding result in experiment [5] is listed as “binds”.
